Measurements from patent US20240382590A1, “NOVEL TUMOR-SPECIFIC ANTIGENS FOR CANCER STEM CELLS AND USES THEREOF” (UNIVERSITÉ DE MONTRÉAL, priority 2021, published 2024).
What was measured is the transcript of the gene that encodes the chain shown.

Test system: cancer samples from TCGA
Assay: RNA expression of MAP-coding sequences in TCGA cancer samples (RPHM)
Set-up: species or system human
Conditions: MCS expression in TCGA cancer types

Sequence	Number of cancer types with >= 10% samples above 2 RPHM (Table 1B, paMAPs)	Number of cancer types with >= 10% samples above 2 RPHM (Table 1D, saMAPs)
AKKKENITY (listed as Homo sapiens) [paMAP]	4	
ALLEGVNTV (listed as Homo sapiens) [previously reported saMAP]		3
ALLEGVNTVVV (listed as Homo sapiens) [saMAP]		3
ALYPQPPTV (listed as Homo sapiens) [paMAP]	2	
AMYHALEKA (listed as Homo sapiens) [saMAP]		24
ASTPASSEL (listed as Homo sapiens) [saMAP]		25
EEEIHSPTL (listed as Homo sapiens) [paMAP]	2	
FAYPNQKDF (listed as Homo sapiens) [saMAP]		3
FAYPNQKVTF (listed as Homo sapiens) [paMAP]	2	
FGDGKFSEV (listed as Homo sapiens) [saMAP]		28
FHSQNSPIRY (listed as Homo sapiens) [paMAP]	0	
FLLPGVLLSEA (listed as Homo sapiens) [previously reported saMAP from UGT3A2]		5
FTEEDLHFVLY (listed as Homo sapiens) [paMAP]	1	
GEHLVSVTL (listed as Homo sapiens) [paMAP]	3	
GEIKTFSDL (listed as Homo sapiens) [paMAP]	4	
GKFQGLIEKF (listed as Homo sapiens) [saMAP]		29
GKLDNTNEY (listed as Homo sapiens) [paMAP]	3	
GLYDGREHSV (listed as Homo sapiens) [previously reported paMAP]	1	
GQAHPQGSF (listed as Homo sapiens) [paMAP]	4	
GQFDRPAGV (listed as Homo sapiens) [paMAP]	3	
GQFLVKSGY (listed as Homo sapiens) [saMAP]		12
GQITHNTSF (listed as Homo sapiens) [paMAP]	9	
GQKENVVVY (listed as Homo sapiens) [previously reported saMAP]		23

Sequence	Number of cancer types with >= 10% samples above 2 RPHM (Table 1B, paMAPs)	Number of cancer types with >= 10% samples above 2 RPHM (Table 1D, saMAPs)
HPLPGLILEW (listed as Homo sapiens) [saMAP]		25
IPMKIYLW (listed as Homo sapiens) [paMAP]	4	
ISMCDLVY (listed as Homo sapiens) [paMAP]	0	
KHFDSPRGVAF (listed as Homo sapiens) [paMAP]	3	
KLAQIIRQV (listed as Homo sapiens) [paMAP]	5	
KLDSYIIPY (listed as Homo sapiens) [paMAP]	1	
KLQEKIQEL (listed as Homo sapiens) [previously reported saMAP]		28
KMSELQTYV (listed as Homo sapiens) [previously reported saMAP]		32
KQFEGTVEI (listed as Homo sapiens) [previously reported saMAP]		17
KQMENDIQLY (listed as Homo sapiens) [saMAP]		22
LALGNTKEL (listed as Homo sapiens) [previously reported saMAP]		8
LPMWKALLF (listed as Homo sapiens) [paMAP]	5	
LPSGETIAKW (listed as Homo sapiens) [paMAP]	7	
MAWNGILHL (listed as Homo sapiens) [saMAP]		1
MKFGNQVSGLF (listed as Homo sapiens) [paMAP]	1	
NPIGDTGVKF (listed as Homo sapiens) [previously reported paMAP]	10	
NTENYILWGY (listed as Homo sapiens) [paMAP]	2	
NTLSESYIY (listed as Homo sapiens) [paMAP]	3	
QPLPEPLQLW (listed as Homo sapiens) [paMAP]	1	
QPLPQPLELW (listed as Homo sapiens) [paMAP]	6	
QTELNNSKQEY (listed as Homo sapiens) [saMAP]		23
RLQHEPPHPV (listed as Homo sapiens) [paMAP]	10	
RLWNETVEL (listed as Homo sapiens) [previously reported saMAP]		32

Sequence	Number of cancer types with >= 10% samples above 2 RPHM (Table 1B, paMAPs)	Number of cancer types with >= 10% samples above 2 RPHM (Table 1D, saMAPs)
RLWNETVELF (listed as Homo sapiens) [saMAP]		31
RPARPPAGL (listed as Homo sapiens) [paMAP]	5	
RTDTGKRVLY (listed as Homo sapiens) [paMAP]	0	
SANVSKVSF (listed as Homo sapiens) [previously reported saMAP]		18
SAQGKPTYF (listed as Homo sapiens) [paMAP]	2	
SETHPPEVAL (listed as Homo sapiens) [saMAP]		3
SEVSADKLVAL (listed as Homo sapiens) [saMAP]		22
SKLRSTGQSF (listed as Homo sapiens) [paMAP]	1	
SLLGSSEILEV (listed as Homo sapiens) [paMAP]	1	
SPQEASGVRW (listed as Homo sapiens) [saMAP]		3
SQNSPIRY (listed as Homo sapiens) [paMAP]	0	
SQSSLMLYL (listed as Homo sapiens) [paMAP]	0	
TASDLNLKV (listed as Homo sapiens) [previously reported paMAP]	3	
TPSPIIQQL (listed as Homo sapiens) [previously reported saMAP]		30
VAKPPGTAF (listed as Homo sapiens) [paMAP]	0	
VLMDEGAVLTL (listed as Homo sapiens) [previously reported paMAP]	4	
VSDQQNGTY (listed as Homo sapiens) [paMAP]	3	
VTLSTYFHV (listed as Homo sapiens) [paMAP]	1	
YKRMKLDSY (listed as Homo sapiens) [paMAP]	7	
YLLNCHLLI (listed as Homo sapiens) [saMAP]		3
YSDQKPPYSY (listed as Homo sapiens) [paMAP]	5	
YSIYPMRNL (listed as Homo sapiens) [paMAP]	2	
YTPFPSYGHY (listed as Homo sapiens) [paMAP]	1	
